Laboratory results published in PubChem BioAssay AID1259354 (Paczesny and Yang Labs, IUPUI and University of Michigan, 2018).
Hit rate of the full screen: of about 78,000 compounds, about 1,800 (2.3%) were called active. The shares of active, inactive and inconclusive entries below differ from those in the screen. Rule as the data show it: active = inhibition above about 30%; inconclusive = mostly about 10% to 28%; inactive = weaker than that.

Amino acid sequences for entries named in this document (tags omitted). A change or cut given only in a name is not applied to a line headed by its entry.
UniProt Q01638: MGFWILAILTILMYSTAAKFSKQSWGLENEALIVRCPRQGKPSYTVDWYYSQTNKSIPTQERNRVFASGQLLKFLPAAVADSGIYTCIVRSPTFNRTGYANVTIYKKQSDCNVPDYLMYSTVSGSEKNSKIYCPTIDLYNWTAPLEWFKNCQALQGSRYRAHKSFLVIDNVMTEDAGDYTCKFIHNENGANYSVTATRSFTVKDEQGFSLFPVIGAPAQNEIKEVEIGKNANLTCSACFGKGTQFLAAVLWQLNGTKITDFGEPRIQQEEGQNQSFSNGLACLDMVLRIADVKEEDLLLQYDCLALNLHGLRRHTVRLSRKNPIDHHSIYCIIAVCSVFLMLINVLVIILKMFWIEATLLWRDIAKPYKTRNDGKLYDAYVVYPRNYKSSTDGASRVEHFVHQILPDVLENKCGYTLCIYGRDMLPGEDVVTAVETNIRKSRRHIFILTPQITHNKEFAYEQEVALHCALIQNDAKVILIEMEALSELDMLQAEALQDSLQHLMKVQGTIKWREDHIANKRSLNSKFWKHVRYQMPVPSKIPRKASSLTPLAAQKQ

Biological target: Interleukin-1 receptor-like 1 (Homo sapiens) (UniProt Q01638)
Assay: blocks human ST2 binding to IL-33, primary screen, biochemical, AlphaLISA (AID 1259354)
Conditions: AlphaLISA ST2-Fc/biotin-IL-33 interaction, 1 h; at 17 µM, active compounds read high

Row | Compound | inhibition
1 | CCN(CCc1nc2ccc(C)cc2[nH]1)C(=O)c1c[nH]c2c(C)cccc2c1=O | inactive
2 | CN1CCCCCC1C(=O)N1CCC(N2CCC(C(=O)NC3CC3)CC2)CC1 (centres undefined) | inactive
3 | Cc1cc2c(o1)-c1c(oc3ccc(Br)cc13)CCC2(C)c1ccccc1 (centres undefined) | inconclusive: 21%
4 | NS(=O)(=O)c1ccc(NC(=O)C2Cc3ccccc3N2C(=O)c2ccccc2)cc1 (centres undefined) | inconclusive: 10%
5 | Cc1ccc(C2CC(c3cccs3)=NN2C(=O)CSc2cn(C)c3ccccc23)cc1 (centres undefined) | inconclusive: 19%
6 | Cc1cc(C)cc(-n2c(CCCC(=O)O)nc3cccnc32)c1 | inactive
7 | CCn1nc(C)c(Cn2ccnc2-c2cnc(N(C)C)s2)c1C | inconclusive: 18%
8 | COc1cccc2sc(Nc3ccc(Cl)cc3)nc12 | inconclusive: 10%
9 | COc1cc(NC(=O)CCCn2nc([N+](=O)[O-])cc2C)c(OC)cc1Cl | inconclusive: 10%
10 | Cn1c(C(=O)N2CCCn3cncc3C2)cc2c(Cl)cccc21 | inactive
11 | O=C(CCCn1cnc([N+](=O)[O-])n1)Nc1cc(Cl)ccc1O | inconclusive: 11%
12 | Cc1cccc(CN2C(=O)CSc3ccccc32)c1 | inconclusive: 15%
13 | COc1cc(-c2ccc(C)s2)cc2c1OCCN(CCc1cn[nH]c1)C2 | inactive
14 | CC1(C)CC(=O)C=C(/C=C/c2ccc(N3N=N3)cc2)C1 | active: 40%
15 | CC(=O)Nc1cc(C(N)=O)cc(C(N)=O)c1 | inactive
16 | CCc1nc(SCC(=O)N2CCC(O)(c3ccc(C)cn3)CC2)n[nH]1 | inconclusive: 16%
17 | COc1ccc(CNC(=O)C2C3C=CC4(CN(Cc5cccs5)C(=O)C24)O3)cc1 (centres undefined) | inactive
18 | O=C1CCC(C(=O)N2CCCCO2)CN1CCc1ccccn1 (centres undefined) | inconclusive: 13%
19 | O=c1[nH]c(Cc2ccccc2)nc2c1C1(CCCCC1)Cc1ccccc1-2 | inactive
20 | CC(CN1c2ccccc2Sc2ccccc21)N(C)C (centres undefined) | inconclusive: 23%
21 | CCc1cccc(OCCCCN2CCCCC2)c1 | inactive
22 | O=C(c1cccc(F)c1)N1CCN=C1SCc1ccc(Br)cc1 | inactive
23 | COc1cccc(OC)c1-c1ccc(CN2CCCCC2)cc1 | inconclusive: 17%
24 | O=C(Nc1cc(Cl)ccc1Cl)c1noc2c1CCCCC2 | inconclusive: 14%

Row | Compound | inhibition
25 | O=C(Nc1ccccc1)N[C@H]1C[C@H]2C(=O)NC[C@@H](CCC(=O)N3CCc4ccccc43)N2C1 | inconclusive: 10%
26 | O=C1CC(c2ccc(Cl)cc2)CC2=C1C(c1ccsc1)Nc1ccccc1N2 (centres undefined) | inconclusive: 23%
27 | O=[N+]([O-])c1cc2c(cc1S(=O)(=O)c1ccc(Cl)cc1)OCO2 | inconclusive: 14%
28 | O=C(Nc1ccc(Oc2ccccc2)nc1)C1CCN(Cc2ccc3c(c2)CCO3)CC1 | inconclusive: 15%
29 | COc1ccccc1NS(=O)(=O)c1ccc(NC(C)=O)cc1 | inactive
30 | O=C(c1ccc(NCC2CCOC2)nc1)N1CCC(Cn2cccn2)CC1 (centres undefined) | inconclusive: 13%
31 | CC(=O)Oc1ccc2c(=O)c(Oc3ccccc3)c(C)oc2c1OC(C)=O | inactive
32 | COCCOC(=O)C1=C(C)NC2=C(C(=O)CC(c3ccccc3)C2)C1c1ccc(OC)cc1 (centres undefined) | inactive
33 | CCSc1nc2c(c(=O)[nH]1)C(c1ccc(Cl)cc1)C(C(=O)OC(C)C)=C(C)N2 (centres undefined) | inconclusive: 12%
34 | O=C(CC1Sc2ccccc2NC1=O)Nc1cccc([N+](=O)[O-])c1 (centres undefined) | inconclusive: 14%
35 | COc1ccc(C(=O)NCC2CCN(Cc3cc(C)c(C)o3)C2)o1 (centres undefined) | inconclusive: 26%
36 | CCNC(=O)O[C@@H]1CO[C@H]2[C@@H]1OC[C@@H]2NS(=O)(=O)c1ccc2ccccc2c1 | inconclusive: 15%
37 | CN(C)CCNC(=O)C[C@@H]1CCNC[C@@H]1Cc1cc(-c2ccc(C(C)(C)C)cc2)on1 | inconclusive: 12%
38 | COc1cccc(N2C(=O)C(O)=C(C(C)=O)C2c2ccc(Br)cc2)c1 (centres undefined) | inconclusive: 15%
39 | CC12COC3(C(=O)Nc4cccc(Cl)c4)CC1CCC32C (centres undefined) | inactive
40 | CCn1ncc(-c2c(-c3ccccc3)ncn2CCSc2nccn2C)c1C | inconclusive: 11%
41 | O=C1/C(=C/c2ccccc2[N+](=O)[O-])Sc2ccccc21 | active: 31%
42 | O=C(O)c1ccc(C(=O)Nc2cc(Cl)cc(Cl)c2)c(C(=O)O)c1 | inactive
43 | c1ccc(-n2cc(CN3CCN(c4ncnc5ccccc45)CC3)cn2)cc1 | inconclusive: 13%
44 | O=C(c1ccc2c(=O)n(CCc3ccccc3)c(=O)[nH]c2c1)N1CCN(C(=O)c2ccco2)CC1 | inconclusive: 16%
45 | Cc1ccc(-c2nnc(-c3nc(NCCc4cnc[nH]4)c4ccccc4n3)o2)cc1 | inconclusive: 11%
46 | CC1CCN(S(=O)(=O)c2ccc3[nH]c(=O)cc(C(=O)NCCN4CCCCC4C)c3c2)CC1 (centres undefined) | inconclusive: 15%
47 | CCN1CCN(c2cc(C)c3cc(NC(=O)CCC(=O)N4CCCC(C)C4)ccc3n2)CC1 (centres undefined) | inactive
48 | COc1ccc(-n2cccn2)c(C2CC(=O)NCc3nc4ccccn4c32)c1 (centres undefined) | inactive

An excerpt taken from the entries so far:
Row | Compound | inhibition
7 | CCn1nc(C)c(Cn2ccnc2-c2cnc(N(C)C)s2)c1C | inconclusive: 18%
8 | COc1cccc2sc(Nc3ccc(Cl)cc3)nc12 | inconclusive: 10%
9 | COc1cc(NC(=O)CCCn2nc([N+](=O)[O-])cc2C)c(OC)cc1Cl | inconclusive: 10%
10 | Cn1c(C(=O)N2CCCn3cncc3C2)cc2c(Cl)cccc21 | inactive

An excerpt of these results, in markdown.

| Row | Compound | inhibition |
| --- | --- | --- |
| 12 | Cc1cccc(CN2C(=O)CSc3ccccc32)c1 | inconclusive: 15% |
| 13 | COc1cc(-c2ccc(C)s2)cc2c1OCCN(CCc1cn[nH]c1)C2 | inactive |

(list continues)

Row | Compound | inhibition
49 | CN(N)c1nc(-c2ccccc2)cc(-c2ccccc2)n1 | inconclusive: 13%
50 | CC(=O)C1=C(O)C(=O)N(CC(CC(=O)O)c2ccccc2)C1c1ccccc1F (centres undefined) | inactive
51 | CN1CCCNC1c1ccc(-c2ccc(Br)cc2)o1 (centres undefined) | inconclusive: 13%
52 | CCOc1cc2c(cc1OCC)C1C(C(=O)N3CCN(CC)CC3)c3ccccc3C(=O)N1CC2 (centres undefined) | inconclusive: 14%
53 | c1ccc(Nc2nc3c(s2)CCCC3)cc1 | inconclusive: 25%
54 | Cn1cnnc1-c1cccc([N+](=O)[O-])c1 | inactive
55 | O=C(CN1C(=O)/C(=C\c2ccc(Cl)cc2)Sc2ccccc21)NCC1CCCO1 (centres undefined) | inconclusive: 18%
56 | FC(F)(F)c1ccc(Oc2cccc(CN3CCCC3)c2Cl)nc1 | inconclusive: 14%
57 | CCN(CC)c1ncccc1CNC(=O)COC | inconclusive: 17%
58 | Cc1nn(Cc2ccc(Cl)cc2)c(C)c1NC(=O)CCCn1nc([N+](=O)[O-])cc1C | inconclusive: 10%
59 | COC(=O)C1CCN(C(=O)CC2(c3ccc(-c4ccccc4)cc3)CC(=O)N(C3CC3)C2=O)CC1 (centres undefined) | inactive
60 | O=C(CSc1nc2ccccc2[nH]1)Nc1ccc(F)c(F)c1 | inconclusive: 11%
61 | CCOC(=O)c1cc2c(n(-c3ccc(OC)cc3)c1=O)CC(C)(C)CC2=O | inconclusive: 12%
62 | O=C(CSc1nc2ccccc2o1)N1CCCc2ccccc21 | inconclusive: 15%
63 | Cc1ccc(S(=O)(=O)N2CCN(C(=O)c3ccccc3)C2)cc1[N+](=O)[O-] | inactive
64 | O=[N+]([O-])c1cccc2ccc(N3CCOCC3)nc12 | inconclusive: 14%
65 | O=C1c2ccc(Br)cc2C(=O)N1Cc1ccc2c(c1)OCO2 | inconclusive: 15%
66 | Cc1nc2ccccc2c2c1C(=O)N(C(C)Cc1ccccc1)C2=O (centres undefined) | active: 34%
67 | CCN1C(=O)NC(=O)/C(=C\c2cn(CCOc3ccc4c(c3)OCO4)c3ccccc23)C1=O | inconclusive: 10%
68 | COc1ccc(C(=O)c2ccc(OC)cc2)cc1 | inconclusive: 12%
69 | Cc1cc(NC(=O)Cn2c(=O)n(-c3ccc(C)c(F)c3)c(=O)c3sccc32)n[nH]1 | inactive
70 | COc1ccc(C(=O)C2CCCN(c3ncnc4[nH]ccc34)C2)c(OC)c1 (centres undefined) | inconclusive: 13%
71 | COc1cccc(CNC(=O)c2ccc(Nc3cc(-c4ccccc4)ncn3)cc2)c1 | inactive
72 | CCCOC(=O)c1c(NC(=O)C2CCCCC2C(=O)O)sc2c1CCC(C)C2 (centres undefined) | inconclusive: 10%

Row | Compound | inhibition
73 | Cc1cnc2c(C(=O)NCC3CC(C(C)C)=NO3)cnn2c1 (centres undefined) | inconclusive: 24%
74 | Cc1c[nH]c(CN2CCC(=O)N(CC3CC3)C(C(C)C)C2)c(C)c1=O (centres undefined) | inconclusive: 20%
75 | CC1(C)Cc2ccccc2-c2nc(NCCO)n(-c3ccccc3)c(=O)c21 | inconclusive: 26%
76 | Cc1cc(Br)ccc1OCC(=O)Nc1c(C)cccc1C | inconclusive: 12%
77 | Cc1noc(C)c1CCc1nn2c(CC(C)C)nnc2s1 | inconclusive: 10%
78 | O=c1oc2ccccc2cc1-c1nc(-c2ccc(Br)cc2)cs1 | inconclusive: 18%
79 | CSc1ccc(C2C(C#N)=C(N)Oc3cc(N)ccc32)cc1 (centres undefined) | inactive
80 | CN(C)CCNC(=O)C[C@@H]1O[C@H](CNC(=O)Nc2cccc(F)c2)[C@@H](O)[C@H]1O | inconclusive: 10%
81 | COc1ccccc1NC(=O)c1cc2c(=O)n3ccccc3nc2s1 | inconclusive: 12%
82 | COc1cc(NC(=O)CCCn2nc(C)c([N+](=O)[O-])c2C)c(OC)cc1Cl | inactive
83 | COc1ccccc1C(=O)N/C(=C\c1ccc2c(c1)OCO2)C(N)=O | inactive
84 | CCOc1cc(-c2ccc(SC)cc2)cc(=O)c2c(C)oc(C)c12 | inconclusive: 12%
85 | CC(C)(C)c1ccc(OCC(O)CN2C(=O)c3ccccc3C2=O)cc1 (centres undefined) | inconclusive: 11%
86 | CC(C)C1N=C2c3ccccc3N=C(SCC(=O)NCCc3ccccc3)N2C1=O (centres undefined) | inactive
87 | COC(=O)c1cccc(-c2cc(Cl)c3c(c2)CC(CNC(=O)CCn2ccc(C)n2)O3)c1 (centres undefined) | inactive
88 | Cc1ncc(CC(=O)N2CCOC(C(F)(F)F)C2)c(=O)[nH]1 (centres undefined) | inactive
89 | Nc1ccccc1-c1nc(-c2ccccc2)nc2ccccc12 | inconclusive: 16%
90 | Cc1cc(C)n(C(=O)c2cc(Cl)nc3ccccc23)n1 | inconclusive: 27%
91 | COc1ccc(-c2nc(N)sc2-c2ccc(N)cc2)cc1 | inconclusive: 25%
92 | COC(=O)c1ccc(C(=O)Nc2nc3ccc4sc(C)nc4c3s2)cc1 | active: 36%
93 | CC1CC(Nc2ccccc2)c2ccccc2N1C(=O)c1ccncc1 (centres undefined) | inconclusive: 26%
94 | Cc1ccc(Nc2cc(C)nc(N3CCN(S(=O)(=O)c4ccccc4)CC3)n2)cc1 | inconclusive: 20%
